In doi:10.1101/2021.09.06.459192 one finds binding data, which are given here for seven molecules.

Chains of the proteins cited; added tags and fusions are not shown.
UniProt P42945: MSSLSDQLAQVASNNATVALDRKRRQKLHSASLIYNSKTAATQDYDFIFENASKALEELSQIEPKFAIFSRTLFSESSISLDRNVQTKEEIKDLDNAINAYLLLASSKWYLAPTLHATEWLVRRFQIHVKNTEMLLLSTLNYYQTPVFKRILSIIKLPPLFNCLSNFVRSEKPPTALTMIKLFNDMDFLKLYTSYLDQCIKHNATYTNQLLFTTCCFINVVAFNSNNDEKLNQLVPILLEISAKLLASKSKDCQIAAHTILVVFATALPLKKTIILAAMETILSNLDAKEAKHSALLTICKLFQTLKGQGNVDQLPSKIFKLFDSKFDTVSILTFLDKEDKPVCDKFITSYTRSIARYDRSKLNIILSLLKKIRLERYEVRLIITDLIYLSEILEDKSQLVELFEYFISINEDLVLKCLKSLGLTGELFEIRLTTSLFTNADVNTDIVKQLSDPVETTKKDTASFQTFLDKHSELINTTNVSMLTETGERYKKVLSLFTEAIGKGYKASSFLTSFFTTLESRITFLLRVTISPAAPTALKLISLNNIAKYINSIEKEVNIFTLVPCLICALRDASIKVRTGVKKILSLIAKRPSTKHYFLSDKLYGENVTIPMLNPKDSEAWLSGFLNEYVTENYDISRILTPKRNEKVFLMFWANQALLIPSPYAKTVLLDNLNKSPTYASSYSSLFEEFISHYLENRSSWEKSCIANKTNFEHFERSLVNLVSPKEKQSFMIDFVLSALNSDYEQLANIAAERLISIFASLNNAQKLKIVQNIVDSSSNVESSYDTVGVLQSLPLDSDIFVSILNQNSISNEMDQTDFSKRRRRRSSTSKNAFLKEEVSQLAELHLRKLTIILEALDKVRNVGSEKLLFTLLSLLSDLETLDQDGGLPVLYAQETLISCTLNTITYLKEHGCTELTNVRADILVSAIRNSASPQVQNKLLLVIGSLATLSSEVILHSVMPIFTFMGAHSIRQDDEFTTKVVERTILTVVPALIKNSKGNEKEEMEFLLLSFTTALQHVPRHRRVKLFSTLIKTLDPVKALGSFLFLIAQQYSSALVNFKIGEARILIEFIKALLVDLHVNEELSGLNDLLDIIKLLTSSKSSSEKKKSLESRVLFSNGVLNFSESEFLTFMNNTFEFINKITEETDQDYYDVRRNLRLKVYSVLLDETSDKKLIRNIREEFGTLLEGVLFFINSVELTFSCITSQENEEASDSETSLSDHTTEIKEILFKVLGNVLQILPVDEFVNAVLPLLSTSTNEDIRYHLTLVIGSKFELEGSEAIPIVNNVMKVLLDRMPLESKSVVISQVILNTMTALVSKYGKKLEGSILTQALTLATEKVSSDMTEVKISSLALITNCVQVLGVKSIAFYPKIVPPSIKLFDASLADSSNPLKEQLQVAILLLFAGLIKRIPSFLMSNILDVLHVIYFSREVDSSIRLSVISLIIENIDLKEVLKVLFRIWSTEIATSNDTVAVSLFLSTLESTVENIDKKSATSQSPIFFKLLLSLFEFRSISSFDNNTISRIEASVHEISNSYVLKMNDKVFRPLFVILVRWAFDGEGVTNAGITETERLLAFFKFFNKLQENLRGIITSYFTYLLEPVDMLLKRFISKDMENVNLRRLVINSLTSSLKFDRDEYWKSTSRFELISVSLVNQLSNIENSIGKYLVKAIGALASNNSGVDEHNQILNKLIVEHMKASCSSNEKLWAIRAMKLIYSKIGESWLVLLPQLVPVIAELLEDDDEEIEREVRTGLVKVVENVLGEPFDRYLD

Results are given in words; binding and its absence hold for the method and conditions named. In cells and extracts the contact can be indirect. A yes stands for co-enrichment or nearness to the bait. Other partners may have been found.

To fix the notation:
B1: Bms1 (protein, UniProt Q08965 1-1183)
chain: MEQSNKQHRKAKEKNTAKKKLHTQGHNAKAFAVAAPGKMARTMQRSSDVNERKLHVPMVDRTPEDDPPPFIVAVVGPPGTGKTTLIRSLVRRMTKSTLNDIQGPITVVSGKHRRLTFLECPADDLNAMIDIAKIADLVLLLIDGNFGFEMETMEFLNIAQHHGMPRVLGVATHLDLFKSQSTLRASKKRLKHRFWTEVYQGAKLFYLSGVINGRYPDREILNLSRFISVMKFRPLKWRNEHPYMLADRFTDLTHPELIETQGLQIDRKVAIYGYLHGTPLPSAPGTRVHIAGVGDFSVAQIEKLPDPCPTPFYQQKLDDFEREKMKEEAKANGEITTASTTRRRKRLDDKDKLIYAPMSDVGGVLMDKDAVYIDIGKKNEEPSFVPGQERGEGEKLMTGLQSVEQSIAEKFDGVGLQLFSNGTELHEVADHEGMDVESGEESIEDDEGKSKGRTSLRKPRIYGKPVQEEDADIDNLPSDEEPYTNDDDVQDSEPRMVEIDFNNTGEQGAEKLALETDSEFEESEDEFSWERTAANKLKKTESKKRTWNIGKLIYMDNISPEECIRRWRGEDDDSKDESDIEEDVDDDFFRKKDGTVTKEGNKDHAVDLEKFVPYFDTFEKLAKKWKSVDAIKERFLGAGILGNDNKTKSDSNEGGEELYGDFEDLEDGNPSEQAEDNSDKESEDEDENEDTNGDDDNSFTNFDAEEKKDLTMEQEREMNAAKKEKLRAQFEIEEGENFKEDDENNEYDTWYELQKAKISKQLEINNIEYQEMTPEQRQRIEGFKAGSYVRIVFEKVPMEFVKNFNPKFPIVMGGLLPTEIKFGIVKARLRRHRWHKKILKTNDPLVLSLGWRRFQTLPIYTTTDSRTRTRMLKYTPEHTYCNAAFYGPLCSPNTPFCGVQIVANSDTGNGFRIAATGIVEEIDVNIEIVKKLKLVGFPYKIFKNTAFIKDMFSSAMEVARFEGAQIKTVSGIRGEIKRALSKPEGHYRAAFEDKILMSDIVILRSWYPVRVKKFYNPVTSLLLKEKTEWKGLRLTGQIRAAMNLETPSNPDSAYHKIERVERHFNGLKVPKAVQKELPFKSQIHQMKPQKKKTYMAKRAVVLGGDEKKARSFIQKVLTISKAKDSKRKEQKASQRKERLKKLAKMEEEKSQRDKEKKKEYFAQNGKRTTMGGDDESRPRKMRR
B2: Rrp36 (in yeast cells) (protein, UniProt Q12481 1-300)
chain: MSYYFKNLKPDLNSDVEEDDGNLLESIMANKSKREIDEQESSDDELKTLSFGSLKKAETVIDEEDFKDTKPVHKKPITTTYREESFDEDEDSEDQSDEDAGFFEEDSEDETHHGQKVPKKKSKHAPVEQSSKKRVPRVRNIPGLEIPRNKRSNLYQDIRFDKSTGKALDSSIIRKRYQFLDEYREKEIDELQKLLQERKFLSKIDQGEREEMEQRLKSMKSRLQSMKNKDLEREILKEYENDMNKNNNTRYHLKKSEKRKVVQKWKFDHMKAKQREKVMERKRKKRLGKEFKQFEFHNRR
B3: Utp30 (protein, UniProt P36144 1-274)
chain: MVESNDIIKSGLAEKALKALILQCEENPSLKNDKDIHIIINTGKKMGINRDNIPRIIPLTKYKLFKPRDLNILLITKDPSALYRETLTKDEHTSELFKEIISVKNLRRRFKGSKLTQLYKDFDLVVADYRVHHLLPEVLGSRFYHGSKKLPYMIRMSKEVKLKRQQMVEKCDPIYVRAQLRSICKNTSYIPNNDNCLSVRVGYIQKHSIPEILQNIQDTINFLTDKSKRPQGGVIKGGIISIFVKTSNSTSLPIYQFSEARENQKNEDLSDIKL
B4: Noc4 (protein, UniProt Q06512 1-552)
chain: MVLLISEIKDIAKRLTAAGDRKQYNSIIKLINELVIPENVTQLEEDETEKNLRFLVMSLFQIFRKLFSRGDLTLPSSKKSTLEKEQFVNWCRKVYEAFKTKLLAIISDIPFETSLGLDSLDVYLQLAELESTHFASEKGAPFFPNKTFRKLIIALWSSNMGEIEDVKSSGASENLIIVEFTEKYYTKFADIQYYFQSEFNQLLEDPAYQDLLLKNVGKWLALVNHDKHCSSVDADLEIFVPNPPQAIENESKFKSNFEKNWLSLLNGQLSLQQYKSILLILHKRIIPHFHTPTKLMDFLTDSYNLQSSNKNAGVVPILALNGLFELMKRFNLEYPNFYMKLYQIINPDLMHVKYRARFFRLMDVFLSSTHLSAHLVASFIKKLARLTLESPPSAIVTVIPFIYNLIRKHPNCMIMLHNPAFISNPFQTPDQVANLKTLKENYVDPFDVHESDPELTHALDSSLWELASLMEHYHPNVATLAKIFAQPFKKLSYNMEDFLDWNYDSLLNAESSRKLKTLPTLEFEAFTNVFDNEDGDSEASSQGNVYLPGVAW
B5: Rcl1 (protein, UniProt Q08096 1-367)
chain: MSSSAPKYTTFQGSQNFRLRIVLATLSGKPIKIEKIRSGDLNPGLKDYEVSFLRLIESVTNGSVIEISYTGTTVIYRPGIIVGGASTHICPSSKPVGYFVEPMLYLAPFSKKKFSILFKGITASHNDAGIEAIKWGLMPVMEKFGVRECALHTLKRGSPPLGGGEVHLVVDSLIAQPITMHEIDRPIISSITGVAYSTRVSPSLVNRMIDGAKKVLKNLQCEVNITADVWRGENSGKSPGWGITLVAQSKQKGWSYFAEDIGDAGSIPEELGEKVACQLLEEISKSAAVGRNQLPLAIVYMVIGKEDIGRLRINKEQIDERFIILLRDIKKIFNTEVFLKPVDEADNEDMIATIKGIGFTNTSKKIA
B6: Rrt14 (protein, UniProt P40470 1-206)
chain: MSSSLSQTSKYQATSVVNGLLSNLLPGVPKIRANNGKTSVNNGSKAQLIDRNLKKRVQLQNRDVHKIKKKCKLVKKKKVKKHKLDKEQLEQLAKHQVLKKHQHEGTLTDHERKYLNKLIKRNSQNLRSWDLEEEVRDELEDIQQSILKDTVSTANTDRSKRRRFKRKQFKEDIKESDFVKDHRYPGLTPGLAPVGLSDEEDSSEED
B7: Nop14 (protein, UniProt Q99207 1-810)
chain: MAGSQLKNLKAALKARGLTGQTNVKSKNKKNSKRQAKEYDREEKKKAIAEIREEFNPFEIKAARNKRRDGLPSKTADRIAVGKPGISKQIGEEQRKRAFEARKMMKNKRGGVIDKRFGERDKLLTEEEKMLERFTRERQSQSKRNANLFNLEDDEDDGDMFGDGLTHLGQSLSLEDELANDEEDFLASKRFNEDDAELQQPQRKKTKAEVMKEVIAKSKFYKQERQKAQGIMEDQIDNLDDNFEDVMSELMMTQPKKNPMEPKTDLDKEYDIKVKELQLDKRAAPSDRTKTEEEKNAEAEEKKRELEQQRLDRMNGMIELEEGEERGVEDLDDGFWENEEDYEDDNDGIADSDDDIKFEDQGRDEGFSQILKKKNISISCPRTHDALLDQVKKLDLDDHPKIVKNIIKAYQPKLAEGNKEKLGKFTAVLLRHIIFLSNQNYLKNVQSFKRTQNALISILKSLSEKYNRELSEECRDYINEMQARYKKNHFDALSNGDLVFFSIIGILFSTSDQYHLVITPALILMSQFLEQIKFNSLKRIAFGAVLVRIVSQYQRISKRYIPEVVYFFQKILLTFIVEKENQEKPLDFENIRLDSYELGLPLDVDFTKKRSTIIPLHTLSTMDTEAHPVDQCVSVLLNVMESLDATISTVWKSLPAFNEIILPIQQLLSAYTSKYSDFEKPRNILNKVEKLTKFTEHIPLALQNHKPVSIPTHAPKYEENFNPDKKSYDPDRTRSEINKMKAQLKKERKFTMKEIRKDAKFEARQRIEEKNKESSDYHAKMAHIVNTINTEEGAEKNKYERERKLRGGKK

The target of this experiment is Utp10-TAP (S. cerevisiae) (UniProt P42945). As to the kind of experiment: affinity purification with mass spectrometry.
As to B1, the binding result is recorded as “binds”.

Turning to B2, the binding result is “binds”.

For the molecule B3, the binding result is “binds”.

Consider B4, for which the binding entry is reported as “binds”.

On to B5, for which the binding result is “binds”.

In the case of B6, the binding entry is given as “binds”.

As to B7, the binding entry is on record as “binds”.
